Experimental data taken from PMC4821246.
No constants are given. Whether binding was seen depends on the method and setting. In cells and extracts the contact can be indirect. These calls come from enrichment with a bait or labelling near it, and not all partners need be listed.

By UniProt entry, the sequences of proteins in these tests, tags left out. Where a name states a change or a piece, a line headed by the entry shows the natural chain unless it says otherwise. Chains listed by the source or under a name are the forms on record and can include a tag or linker.
Flag-tagged Citron kinase (Flag::CIT-K) (O14578, form named): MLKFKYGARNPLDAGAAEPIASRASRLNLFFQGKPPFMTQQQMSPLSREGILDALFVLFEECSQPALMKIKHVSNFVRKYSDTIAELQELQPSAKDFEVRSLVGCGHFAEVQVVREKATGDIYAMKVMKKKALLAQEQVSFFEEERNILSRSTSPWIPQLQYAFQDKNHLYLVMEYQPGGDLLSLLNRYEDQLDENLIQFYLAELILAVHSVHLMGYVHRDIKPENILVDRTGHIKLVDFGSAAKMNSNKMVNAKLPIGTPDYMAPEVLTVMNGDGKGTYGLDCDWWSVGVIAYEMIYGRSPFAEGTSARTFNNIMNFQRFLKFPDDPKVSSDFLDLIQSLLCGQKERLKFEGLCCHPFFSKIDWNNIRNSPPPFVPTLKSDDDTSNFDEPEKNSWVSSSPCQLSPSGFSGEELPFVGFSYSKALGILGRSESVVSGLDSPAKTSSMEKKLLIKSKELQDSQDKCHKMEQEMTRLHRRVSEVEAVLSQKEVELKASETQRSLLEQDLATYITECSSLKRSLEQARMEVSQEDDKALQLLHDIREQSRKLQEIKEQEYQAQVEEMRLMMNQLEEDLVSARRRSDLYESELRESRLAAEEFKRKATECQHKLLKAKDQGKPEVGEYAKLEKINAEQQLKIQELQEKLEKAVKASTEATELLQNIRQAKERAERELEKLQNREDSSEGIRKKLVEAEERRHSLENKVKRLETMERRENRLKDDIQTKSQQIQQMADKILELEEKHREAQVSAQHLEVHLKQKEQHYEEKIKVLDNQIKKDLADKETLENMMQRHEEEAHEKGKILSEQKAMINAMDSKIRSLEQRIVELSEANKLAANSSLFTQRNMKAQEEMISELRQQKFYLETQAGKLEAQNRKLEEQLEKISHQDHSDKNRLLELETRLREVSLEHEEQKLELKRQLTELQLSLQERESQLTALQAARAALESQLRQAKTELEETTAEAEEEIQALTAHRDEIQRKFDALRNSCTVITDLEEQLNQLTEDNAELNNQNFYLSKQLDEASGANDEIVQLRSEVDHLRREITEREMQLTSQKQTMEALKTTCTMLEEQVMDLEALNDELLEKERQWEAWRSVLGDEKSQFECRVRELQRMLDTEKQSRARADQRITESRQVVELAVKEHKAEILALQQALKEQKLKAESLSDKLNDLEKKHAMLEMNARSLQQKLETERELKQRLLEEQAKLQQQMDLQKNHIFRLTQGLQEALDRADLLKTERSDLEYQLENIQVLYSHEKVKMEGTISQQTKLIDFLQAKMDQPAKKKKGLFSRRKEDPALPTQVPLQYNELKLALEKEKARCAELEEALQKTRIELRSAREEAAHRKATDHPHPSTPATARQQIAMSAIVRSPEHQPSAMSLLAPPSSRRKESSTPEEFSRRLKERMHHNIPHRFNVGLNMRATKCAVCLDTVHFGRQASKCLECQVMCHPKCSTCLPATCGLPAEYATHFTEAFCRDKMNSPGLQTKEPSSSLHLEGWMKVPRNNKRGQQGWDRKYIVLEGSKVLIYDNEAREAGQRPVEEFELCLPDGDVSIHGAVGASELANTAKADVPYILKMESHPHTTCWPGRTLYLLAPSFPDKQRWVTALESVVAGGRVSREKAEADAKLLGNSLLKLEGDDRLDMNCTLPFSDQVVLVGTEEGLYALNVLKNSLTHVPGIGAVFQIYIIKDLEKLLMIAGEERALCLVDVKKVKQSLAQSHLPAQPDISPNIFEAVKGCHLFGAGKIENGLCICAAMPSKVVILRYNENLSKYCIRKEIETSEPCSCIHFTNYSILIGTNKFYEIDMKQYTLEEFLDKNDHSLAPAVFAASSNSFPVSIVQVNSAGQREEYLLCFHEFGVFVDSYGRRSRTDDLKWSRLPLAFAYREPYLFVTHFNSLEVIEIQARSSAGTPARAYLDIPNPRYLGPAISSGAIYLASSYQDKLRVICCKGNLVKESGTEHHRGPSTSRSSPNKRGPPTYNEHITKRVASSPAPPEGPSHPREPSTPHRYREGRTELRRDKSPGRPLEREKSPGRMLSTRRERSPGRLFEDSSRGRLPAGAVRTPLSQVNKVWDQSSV
UniProt Q96GD4: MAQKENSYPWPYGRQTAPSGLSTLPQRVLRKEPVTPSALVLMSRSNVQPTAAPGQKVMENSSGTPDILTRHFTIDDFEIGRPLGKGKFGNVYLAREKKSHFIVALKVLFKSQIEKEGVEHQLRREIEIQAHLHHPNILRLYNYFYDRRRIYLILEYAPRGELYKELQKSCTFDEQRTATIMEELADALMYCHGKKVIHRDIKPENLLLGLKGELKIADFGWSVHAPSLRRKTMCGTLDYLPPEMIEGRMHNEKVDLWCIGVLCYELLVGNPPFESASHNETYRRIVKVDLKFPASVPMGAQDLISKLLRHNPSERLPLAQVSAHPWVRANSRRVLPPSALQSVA
UniProt Q9NQS7: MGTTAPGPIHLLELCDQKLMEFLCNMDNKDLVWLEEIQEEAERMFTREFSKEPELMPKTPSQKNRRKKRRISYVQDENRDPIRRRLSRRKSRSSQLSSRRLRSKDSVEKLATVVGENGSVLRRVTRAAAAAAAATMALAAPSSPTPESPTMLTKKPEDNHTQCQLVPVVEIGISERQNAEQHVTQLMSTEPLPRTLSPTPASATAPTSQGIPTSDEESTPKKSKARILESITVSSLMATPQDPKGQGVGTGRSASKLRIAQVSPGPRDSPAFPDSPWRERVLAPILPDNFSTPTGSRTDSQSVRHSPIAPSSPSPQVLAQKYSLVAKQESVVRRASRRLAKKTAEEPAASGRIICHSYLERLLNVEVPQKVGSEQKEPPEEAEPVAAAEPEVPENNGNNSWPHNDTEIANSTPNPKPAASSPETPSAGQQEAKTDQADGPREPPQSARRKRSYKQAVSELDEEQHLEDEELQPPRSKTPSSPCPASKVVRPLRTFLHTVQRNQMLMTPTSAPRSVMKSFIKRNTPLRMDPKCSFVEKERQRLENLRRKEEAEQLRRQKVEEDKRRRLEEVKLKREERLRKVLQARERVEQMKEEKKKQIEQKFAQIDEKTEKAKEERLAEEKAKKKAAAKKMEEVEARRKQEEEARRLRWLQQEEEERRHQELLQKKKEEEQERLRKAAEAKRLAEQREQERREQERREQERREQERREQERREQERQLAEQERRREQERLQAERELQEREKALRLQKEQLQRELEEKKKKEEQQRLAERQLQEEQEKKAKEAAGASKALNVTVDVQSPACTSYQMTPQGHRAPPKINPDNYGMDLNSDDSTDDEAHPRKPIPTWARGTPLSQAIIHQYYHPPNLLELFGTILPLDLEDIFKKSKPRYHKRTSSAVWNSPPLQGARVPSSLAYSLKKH
UniProt Q15058: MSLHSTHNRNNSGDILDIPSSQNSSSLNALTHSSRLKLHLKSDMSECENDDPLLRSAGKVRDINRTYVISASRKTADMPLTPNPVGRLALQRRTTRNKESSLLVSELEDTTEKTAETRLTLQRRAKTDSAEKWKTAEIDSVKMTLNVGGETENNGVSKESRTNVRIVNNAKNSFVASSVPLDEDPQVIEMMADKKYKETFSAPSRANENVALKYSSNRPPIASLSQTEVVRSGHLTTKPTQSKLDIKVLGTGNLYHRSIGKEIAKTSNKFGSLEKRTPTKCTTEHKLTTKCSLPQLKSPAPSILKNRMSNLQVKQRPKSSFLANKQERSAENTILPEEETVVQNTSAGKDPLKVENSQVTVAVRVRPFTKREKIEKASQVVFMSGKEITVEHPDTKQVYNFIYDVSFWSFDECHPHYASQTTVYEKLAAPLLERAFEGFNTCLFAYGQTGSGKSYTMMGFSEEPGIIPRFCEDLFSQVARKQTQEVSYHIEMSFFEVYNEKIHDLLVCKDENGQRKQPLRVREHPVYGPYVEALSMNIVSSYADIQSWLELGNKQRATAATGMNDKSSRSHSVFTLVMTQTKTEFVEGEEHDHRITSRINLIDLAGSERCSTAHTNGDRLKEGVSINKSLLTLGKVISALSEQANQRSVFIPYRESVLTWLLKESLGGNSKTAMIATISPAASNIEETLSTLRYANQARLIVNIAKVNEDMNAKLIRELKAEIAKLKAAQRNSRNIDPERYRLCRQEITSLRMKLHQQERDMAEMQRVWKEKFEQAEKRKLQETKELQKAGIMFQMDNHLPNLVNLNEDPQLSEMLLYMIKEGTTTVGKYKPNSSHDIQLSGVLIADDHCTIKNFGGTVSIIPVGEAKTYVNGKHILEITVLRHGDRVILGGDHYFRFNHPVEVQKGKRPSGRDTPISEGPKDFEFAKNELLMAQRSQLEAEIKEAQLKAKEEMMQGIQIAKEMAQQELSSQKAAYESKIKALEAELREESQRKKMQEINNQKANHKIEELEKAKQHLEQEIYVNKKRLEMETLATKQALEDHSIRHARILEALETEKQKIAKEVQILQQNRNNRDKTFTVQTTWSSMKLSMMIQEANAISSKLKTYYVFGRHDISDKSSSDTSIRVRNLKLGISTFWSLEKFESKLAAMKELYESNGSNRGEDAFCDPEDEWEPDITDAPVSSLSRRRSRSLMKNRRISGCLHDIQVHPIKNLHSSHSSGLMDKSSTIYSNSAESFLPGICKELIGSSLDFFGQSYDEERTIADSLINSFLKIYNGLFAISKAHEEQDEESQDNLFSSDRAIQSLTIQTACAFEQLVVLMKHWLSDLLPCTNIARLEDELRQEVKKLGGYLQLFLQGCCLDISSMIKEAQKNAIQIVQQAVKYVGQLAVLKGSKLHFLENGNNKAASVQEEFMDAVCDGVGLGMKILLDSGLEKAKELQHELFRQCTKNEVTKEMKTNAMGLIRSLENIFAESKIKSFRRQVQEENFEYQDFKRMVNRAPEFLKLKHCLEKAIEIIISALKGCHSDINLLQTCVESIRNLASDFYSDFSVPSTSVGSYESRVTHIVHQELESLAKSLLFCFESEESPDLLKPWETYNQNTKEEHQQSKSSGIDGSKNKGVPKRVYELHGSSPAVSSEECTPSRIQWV
UniProt O95235: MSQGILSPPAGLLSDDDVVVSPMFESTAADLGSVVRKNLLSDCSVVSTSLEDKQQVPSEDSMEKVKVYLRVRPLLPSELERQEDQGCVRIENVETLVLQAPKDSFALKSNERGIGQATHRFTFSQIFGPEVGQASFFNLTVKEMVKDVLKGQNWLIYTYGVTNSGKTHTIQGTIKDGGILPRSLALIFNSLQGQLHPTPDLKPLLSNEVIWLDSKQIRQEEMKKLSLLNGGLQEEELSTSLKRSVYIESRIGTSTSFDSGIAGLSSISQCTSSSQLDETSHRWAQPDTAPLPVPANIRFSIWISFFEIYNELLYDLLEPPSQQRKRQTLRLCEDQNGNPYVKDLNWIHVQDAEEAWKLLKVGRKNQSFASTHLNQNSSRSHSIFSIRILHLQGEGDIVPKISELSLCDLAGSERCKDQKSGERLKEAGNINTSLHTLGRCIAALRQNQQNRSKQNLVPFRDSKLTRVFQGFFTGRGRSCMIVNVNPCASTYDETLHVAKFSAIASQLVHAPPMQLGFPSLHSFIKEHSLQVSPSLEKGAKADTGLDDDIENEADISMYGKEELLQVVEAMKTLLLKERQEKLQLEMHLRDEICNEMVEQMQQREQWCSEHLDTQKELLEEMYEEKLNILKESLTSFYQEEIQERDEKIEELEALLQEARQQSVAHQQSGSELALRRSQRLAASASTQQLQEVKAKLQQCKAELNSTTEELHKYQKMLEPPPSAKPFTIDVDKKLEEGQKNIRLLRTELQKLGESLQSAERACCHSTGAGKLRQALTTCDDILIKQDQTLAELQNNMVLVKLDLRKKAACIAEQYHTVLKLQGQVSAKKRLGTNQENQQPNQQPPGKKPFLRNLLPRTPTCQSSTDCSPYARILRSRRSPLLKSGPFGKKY

B1: KIF23/MKLP1 (protein, UniProt Q02241 1-960)
chain: MKSARAKTPRKPTVKKGSQTNLKDPVGVYCRVRPLGFPDQECCIEVINNTTVQLHTPEGYRLNRNGDYKETQYSFKQVFGTHTTQKELFDVVANPLVNDLIHGKNGLLFTYGVTGSGKTHTMTGSPGEGGLLPRCLDMIFNSIGSFQAKRYVFKSNDRNSMDIQCEVDALLERQKREAMPNPKTSSSKRQVDPEFADMITVQEFCKAEEVDEDSVYGVFVSYIEIYNNYIYDLLEEVPFDPIKPKPPQSKLLREDKNHNMYVAGCTEVEVKSTEEAFEVFWRGQKKRRIANTHLNRESSRSHSVFNIKLVQAPLDADGDNVLQEKEQITISQLSLVDLAGSERTNRTRAEGNRLREAGNINQSLMTLRTCMDVLRENQMYGTNKMVPYRDSKLTHLFKNYFDGEGKVRMIVCVNPKAEDYEENLQVMRFAEVTQEVEVARPVDKAICGLTPGRRYRNQPRGPVGNEPLVTDVVLQSFPPLPSCEILDINDEQTLPRLIEALEKRHNLRQMMIDEFNKQSNAFKALLQEFDNAVLSKENHMQGKLNEKEKMISGQKLEIERLEKKNKTLEYKIEILEKTTTIYEEDKRNLQQELETQNQKLQRQFSDKRRLEARLQGMVTETTMKWEKECERRVAAKQLEMQNKLWVKDEKLKQLKAIVTEPKTEKPERPSRERDREKVTQRSVSPSPVPLSSNYIAQISNGQQLMSQPQLHRRSNSCSSISVASCISEWEQKIPTYNTPLKVTSIARRRQQEPGQSKTCIVSDRRRGMYWTEGREVVPTFRNEIEIEEDHCGRLLFQPDQNAPPIRLRHRRSRSAGDRWVDHKPASNMQTETVMQPHVPHAITVSVANEKALAKCEKYMLTHQELASDGEIETKLIKGDIYKTRGGGQSVQFTDIETLKQESPNGSRKRRSSTVAPAQPDGAESEWTDVETRCSVAVEMRAGSQLGPGYQHHAQPKRKKP
B2: RacGAP1 (protein, UniProt Q9H0H5 1-632)
chain: MDTMMLNVRNLFEQLVRRVEILSEGNEVQFIQLAKDFEDFRKKWQRTDHELGKYKDLLMKAETERSALDVKLKHARNQVDVEIKRRQRAEADCEKLERQIQLIREMLMCDTSGSIQLSEEQKSALAFLNRGQPSSSNAGNKRLSTIDESGSILSDISFDKTDESLDWDSSLVKTFKLKKREKRRSTSRQFVDGPPGPVKKTRSIGSAVDQGNESIVAKTTVTVPNDGGPIEAVSTIETVPYWTRSRRKTGTLQPWNSDSTLNSRQLEPRTETDSVGTPQSNGGMRLHDFVSKTVIKPESCVPCGKRIKFGKLSLKCRDCRVVSHPECRDRCPLPCIPTLIGTPVKIGEGMLADFVSQTSPMIPSIVVHCVNEIEQRGLTETGLYRISGCDRTVKELKEKFLRVKTVPLLSKVDDIHAICSLLKDFLRNLKEPLLTFRLNRAFMEAAEITDEDNSIAAMYQAVGELPQANRDTLAFLMIHLQRVAQSPHTKMDVANLAKVFGPTIVAHAVPNPDPVTMLQDIKRQPKVVERLLSLPLEYWSQFMMVEQENIDPLHVIENSNAFSTPQTPDIKVSLLGPVTTPEHQLLKTPSSSSLSQRVRSTLTKNTPRFGSKSKSATNLGRQGNFFASPMLK
B3: Borealin (endogenous) (protein, UniProt Q53HL2 1-280)
chain: MAPRKGSSRVAKTNSLRRRKLASFLKDFDREVEIRIKQIESDRQNLLKEVDNLYNIEILRLPKALREMNWLDYFALGGNKQALEEAATADLDITEINKLTAEAIQTPLKSAKTRKVIQVDEMIVEEEEEEENERKNLQTARVKRCPPSKKRTQSIQGKGKGKRSSRANTVTPAVGRLEVSMVKPTPGLTPRFDSRVFKTPGLRTPAAGERIYNISGNGSPLADSKEIFLTVPVGGGESLRLLASDLQRHSIAQLDPEALGNIKKLSNRLAQICSSIRTHK

Biological target: Flag-tagged Citron kinase (Flag::CIT-K) (human) (UniProt O14578)
Test: affinity purification with mass spectrometry; Flag::CIT-K captured on anti-FLAG M2 magnetic beads from extracts of HeLa Kyoto cells synchronized in telophase (thymidine-nocodazole block and release, RO3306); 4°C; extraction buffer 50 mM HEPES pH 7.5, 100 mM KAc, 150 mM NaCl, 2 mM MgCl2, 1 mM EGTA, 0.5% NP-40; LC-MS/MS; compared with Flag alone

Row | Molecule | binding
1 | Aurora B (endogenous) (from UniProt Q96GD4 1-344) | binds
2 | INCENP (endogenous) (from UniProt Q9NQS7 1-918) | binds
3 | KIF14 (from UniProt Q15058 1-1648) | binds
4 | KIF20A/MKLP2 (from UniProt O95235 1-890) | binds
5 | B1 | binds
6 | B2 | binds
7 | B3 | binds
